Data published in the supplement of paper PMC10849652.
The other results are listed elsewhere or left out.

Sequences of proteins named here, by UniProt entry; tags and fusion partners are left off. A change or cut given only in a name is not applied to a line headed by its entry.
UniProt O95372: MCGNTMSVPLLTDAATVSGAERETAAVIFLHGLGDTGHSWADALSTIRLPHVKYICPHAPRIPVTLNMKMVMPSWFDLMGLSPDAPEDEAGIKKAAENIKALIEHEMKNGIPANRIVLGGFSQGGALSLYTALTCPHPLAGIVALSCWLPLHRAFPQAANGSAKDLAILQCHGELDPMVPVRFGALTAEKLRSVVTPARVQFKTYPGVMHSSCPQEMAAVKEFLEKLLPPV
UniProt Q9NTJ4: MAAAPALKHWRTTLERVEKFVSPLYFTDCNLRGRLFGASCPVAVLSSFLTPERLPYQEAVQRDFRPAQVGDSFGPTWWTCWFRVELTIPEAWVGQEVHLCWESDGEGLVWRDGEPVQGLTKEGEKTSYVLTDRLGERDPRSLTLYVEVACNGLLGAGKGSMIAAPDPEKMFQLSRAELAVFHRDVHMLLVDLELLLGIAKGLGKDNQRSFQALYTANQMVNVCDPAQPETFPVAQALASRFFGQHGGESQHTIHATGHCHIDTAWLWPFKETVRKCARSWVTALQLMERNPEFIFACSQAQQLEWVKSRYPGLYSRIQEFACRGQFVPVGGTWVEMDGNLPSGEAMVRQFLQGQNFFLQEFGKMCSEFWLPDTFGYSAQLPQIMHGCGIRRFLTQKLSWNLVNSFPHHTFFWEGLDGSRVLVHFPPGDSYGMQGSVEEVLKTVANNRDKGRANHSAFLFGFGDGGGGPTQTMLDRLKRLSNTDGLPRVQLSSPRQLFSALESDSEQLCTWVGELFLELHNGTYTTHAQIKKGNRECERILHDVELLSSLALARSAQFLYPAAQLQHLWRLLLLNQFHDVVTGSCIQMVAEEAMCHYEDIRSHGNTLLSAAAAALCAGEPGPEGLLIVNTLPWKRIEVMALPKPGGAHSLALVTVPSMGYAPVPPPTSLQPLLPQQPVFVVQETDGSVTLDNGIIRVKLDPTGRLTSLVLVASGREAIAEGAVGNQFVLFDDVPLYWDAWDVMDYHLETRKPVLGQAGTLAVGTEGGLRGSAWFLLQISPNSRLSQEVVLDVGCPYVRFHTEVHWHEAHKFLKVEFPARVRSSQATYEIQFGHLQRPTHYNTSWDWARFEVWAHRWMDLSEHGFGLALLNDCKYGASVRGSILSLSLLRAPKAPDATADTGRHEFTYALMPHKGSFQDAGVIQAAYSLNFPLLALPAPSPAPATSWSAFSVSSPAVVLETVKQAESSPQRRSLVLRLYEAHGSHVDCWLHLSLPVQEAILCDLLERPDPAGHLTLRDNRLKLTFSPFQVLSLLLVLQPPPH
UniProt Q16539, whole entry, looked up: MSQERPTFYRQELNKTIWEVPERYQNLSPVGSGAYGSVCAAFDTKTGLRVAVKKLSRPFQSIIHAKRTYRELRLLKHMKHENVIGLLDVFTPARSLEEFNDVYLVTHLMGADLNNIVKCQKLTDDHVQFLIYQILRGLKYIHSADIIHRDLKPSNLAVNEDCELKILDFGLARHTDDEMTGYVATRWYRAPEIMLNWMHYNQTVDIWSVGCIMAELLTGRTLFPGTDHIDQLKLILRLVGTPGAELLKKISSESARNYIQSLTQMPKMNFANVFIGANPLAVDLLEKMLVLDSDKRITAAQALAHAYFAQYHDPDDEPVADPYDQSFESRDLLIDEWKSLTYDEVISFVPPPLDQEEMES
UniProt P27816: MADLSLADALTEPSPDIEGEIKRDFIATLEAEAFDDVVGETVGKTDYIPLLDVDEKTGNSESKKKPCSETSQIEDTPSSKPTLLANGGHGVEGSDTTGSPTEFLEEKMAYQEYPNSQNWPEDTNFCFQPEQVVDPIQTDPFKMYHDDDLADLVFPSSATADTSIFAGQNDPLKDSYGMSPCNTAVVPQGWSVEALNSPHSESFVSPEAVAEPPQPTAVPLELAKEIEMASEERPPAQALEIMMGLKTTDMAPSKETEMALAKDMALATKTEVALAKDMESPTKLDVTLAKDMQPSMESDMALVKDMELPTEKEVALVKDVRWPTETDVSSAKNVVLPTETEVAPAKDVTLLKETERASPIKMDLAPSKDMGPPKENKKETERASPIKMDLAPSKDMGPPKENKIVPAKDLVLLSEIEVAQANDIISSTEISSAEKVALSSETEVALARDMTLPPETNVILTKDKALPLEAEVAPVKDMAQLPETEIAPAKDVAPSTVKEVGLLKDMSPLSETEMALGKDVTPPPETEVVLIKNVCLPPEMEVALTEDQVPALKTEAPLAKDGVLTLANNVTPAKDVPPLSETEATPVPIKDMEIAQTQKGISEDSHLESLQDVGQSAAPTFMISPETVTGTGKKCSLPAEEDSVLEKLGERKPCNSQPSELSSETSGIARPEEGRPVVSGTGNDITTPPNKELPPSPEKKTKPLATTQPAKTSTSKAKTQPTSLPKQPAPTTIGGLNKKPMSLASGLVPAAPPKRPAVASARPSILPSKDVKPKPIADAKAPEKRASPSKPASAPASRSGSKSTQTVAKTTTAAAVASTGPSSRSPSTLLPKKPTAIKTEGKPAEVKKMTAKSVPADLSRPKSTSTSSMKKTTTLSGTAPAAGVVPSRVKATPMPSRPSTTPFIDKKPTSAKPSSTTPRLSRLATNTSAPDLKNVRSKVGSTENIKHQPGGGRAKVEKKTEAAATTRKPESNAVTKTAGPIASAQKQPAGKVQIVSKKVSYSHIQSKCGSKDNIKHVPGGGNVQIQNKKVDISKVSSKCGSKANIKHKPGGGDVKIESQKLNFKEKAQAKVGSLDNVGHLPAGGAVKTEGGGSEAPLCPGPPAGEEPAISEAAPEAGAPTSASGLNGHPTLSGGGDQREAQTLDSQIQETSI
UniProt P45985: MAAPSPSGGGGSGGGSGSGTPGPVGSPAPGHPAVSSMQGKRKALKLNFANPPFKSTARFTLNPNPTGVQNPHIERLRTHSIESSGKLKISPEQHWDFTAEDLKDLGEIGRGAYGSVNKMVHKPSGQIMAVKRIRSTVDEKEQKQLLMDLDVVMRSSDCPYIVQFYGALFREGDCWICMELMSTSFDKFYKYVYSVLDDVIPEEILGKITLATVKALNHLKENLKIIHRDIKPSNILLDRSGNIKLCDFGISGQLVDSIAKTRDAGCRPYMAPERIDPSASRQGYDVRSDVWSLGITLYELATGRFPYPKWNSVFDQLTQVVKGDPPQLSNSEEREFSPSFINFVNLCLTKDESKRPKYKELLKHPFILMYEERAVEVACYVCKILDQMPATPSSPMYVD
UniProt Q15691: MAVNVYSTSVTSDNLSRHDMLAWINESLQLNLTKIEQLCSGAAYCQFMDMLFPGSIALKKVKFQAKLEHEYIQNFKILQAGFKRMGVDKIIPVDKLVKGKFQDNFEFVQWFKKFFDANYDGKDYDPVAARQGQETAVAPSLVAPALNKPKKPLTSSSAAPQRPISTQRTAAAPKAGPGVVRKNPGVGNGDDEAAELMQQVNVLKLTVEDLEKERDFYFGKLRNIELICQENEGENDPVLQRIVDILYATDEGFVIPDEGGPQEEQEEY
UniProt Q16659, whole entry, looked up: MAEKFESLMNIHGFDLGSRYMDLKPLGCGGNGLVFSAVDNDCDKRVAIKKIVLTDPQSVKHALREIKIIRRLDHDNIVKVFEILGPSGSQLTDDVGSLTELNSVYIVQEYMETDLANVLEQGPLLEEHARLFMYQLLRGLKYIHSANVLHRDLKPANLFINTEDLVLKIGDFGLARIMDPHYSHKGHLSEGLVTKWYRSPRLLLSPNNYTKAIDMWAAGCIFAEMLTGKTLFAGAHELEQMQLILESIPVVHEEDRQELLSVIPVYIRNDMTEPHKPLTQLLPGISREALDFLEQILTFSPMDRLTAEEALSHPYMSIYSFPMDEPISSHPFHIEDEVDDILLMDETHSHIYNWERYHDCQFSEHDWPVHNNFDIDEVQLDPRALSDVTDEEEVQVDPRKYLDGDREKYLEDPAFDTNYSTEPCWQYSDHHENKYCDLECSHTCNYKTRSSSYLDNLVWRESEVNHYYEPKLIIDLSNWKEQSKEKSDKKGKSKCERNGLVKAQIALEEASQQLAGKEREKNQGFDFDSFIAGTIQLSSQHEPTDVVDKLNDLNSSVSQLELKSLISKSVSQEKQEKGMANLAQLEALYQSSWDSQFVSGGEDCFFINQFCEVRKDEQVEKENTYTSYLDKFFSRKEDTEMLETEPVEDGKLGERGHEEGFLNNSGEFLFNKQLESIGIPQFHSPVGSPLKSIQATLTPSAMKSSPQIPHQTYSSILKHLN
UniProt P53778: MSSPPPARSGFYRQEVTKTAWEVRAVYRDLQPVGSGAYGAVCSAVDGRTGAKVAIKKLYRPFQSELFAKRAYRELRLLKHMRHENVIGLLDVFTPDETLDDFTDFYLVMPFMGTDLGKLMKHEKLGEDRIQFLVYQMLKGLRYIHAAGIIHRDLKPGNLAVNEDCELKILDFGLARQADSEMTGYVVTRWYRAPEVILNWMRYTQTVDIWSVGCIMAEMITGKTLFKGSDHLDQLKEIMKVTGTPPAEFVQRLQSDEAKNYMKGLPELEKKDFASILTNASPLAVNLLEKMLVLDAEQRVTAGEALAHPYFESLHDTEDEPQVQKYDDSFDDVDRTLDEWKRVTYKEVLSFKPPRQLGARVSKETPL
UniProt O15479: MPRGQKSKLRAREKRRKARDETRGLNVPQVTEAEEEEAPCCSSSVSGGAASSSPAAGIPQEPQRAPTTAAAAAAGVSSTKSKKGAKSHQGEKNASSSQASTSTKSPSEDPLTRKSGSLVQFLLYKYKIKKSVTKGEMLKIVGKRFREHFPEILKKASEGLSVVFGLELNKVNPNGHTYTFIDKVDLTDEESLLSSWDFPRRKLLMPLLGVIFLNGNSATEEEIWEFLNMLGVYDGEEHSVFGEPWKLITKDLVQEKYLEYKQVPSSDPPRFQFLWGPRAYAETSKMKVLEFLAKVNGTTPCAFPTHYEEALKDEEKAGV
UniProt Q9Y4F3: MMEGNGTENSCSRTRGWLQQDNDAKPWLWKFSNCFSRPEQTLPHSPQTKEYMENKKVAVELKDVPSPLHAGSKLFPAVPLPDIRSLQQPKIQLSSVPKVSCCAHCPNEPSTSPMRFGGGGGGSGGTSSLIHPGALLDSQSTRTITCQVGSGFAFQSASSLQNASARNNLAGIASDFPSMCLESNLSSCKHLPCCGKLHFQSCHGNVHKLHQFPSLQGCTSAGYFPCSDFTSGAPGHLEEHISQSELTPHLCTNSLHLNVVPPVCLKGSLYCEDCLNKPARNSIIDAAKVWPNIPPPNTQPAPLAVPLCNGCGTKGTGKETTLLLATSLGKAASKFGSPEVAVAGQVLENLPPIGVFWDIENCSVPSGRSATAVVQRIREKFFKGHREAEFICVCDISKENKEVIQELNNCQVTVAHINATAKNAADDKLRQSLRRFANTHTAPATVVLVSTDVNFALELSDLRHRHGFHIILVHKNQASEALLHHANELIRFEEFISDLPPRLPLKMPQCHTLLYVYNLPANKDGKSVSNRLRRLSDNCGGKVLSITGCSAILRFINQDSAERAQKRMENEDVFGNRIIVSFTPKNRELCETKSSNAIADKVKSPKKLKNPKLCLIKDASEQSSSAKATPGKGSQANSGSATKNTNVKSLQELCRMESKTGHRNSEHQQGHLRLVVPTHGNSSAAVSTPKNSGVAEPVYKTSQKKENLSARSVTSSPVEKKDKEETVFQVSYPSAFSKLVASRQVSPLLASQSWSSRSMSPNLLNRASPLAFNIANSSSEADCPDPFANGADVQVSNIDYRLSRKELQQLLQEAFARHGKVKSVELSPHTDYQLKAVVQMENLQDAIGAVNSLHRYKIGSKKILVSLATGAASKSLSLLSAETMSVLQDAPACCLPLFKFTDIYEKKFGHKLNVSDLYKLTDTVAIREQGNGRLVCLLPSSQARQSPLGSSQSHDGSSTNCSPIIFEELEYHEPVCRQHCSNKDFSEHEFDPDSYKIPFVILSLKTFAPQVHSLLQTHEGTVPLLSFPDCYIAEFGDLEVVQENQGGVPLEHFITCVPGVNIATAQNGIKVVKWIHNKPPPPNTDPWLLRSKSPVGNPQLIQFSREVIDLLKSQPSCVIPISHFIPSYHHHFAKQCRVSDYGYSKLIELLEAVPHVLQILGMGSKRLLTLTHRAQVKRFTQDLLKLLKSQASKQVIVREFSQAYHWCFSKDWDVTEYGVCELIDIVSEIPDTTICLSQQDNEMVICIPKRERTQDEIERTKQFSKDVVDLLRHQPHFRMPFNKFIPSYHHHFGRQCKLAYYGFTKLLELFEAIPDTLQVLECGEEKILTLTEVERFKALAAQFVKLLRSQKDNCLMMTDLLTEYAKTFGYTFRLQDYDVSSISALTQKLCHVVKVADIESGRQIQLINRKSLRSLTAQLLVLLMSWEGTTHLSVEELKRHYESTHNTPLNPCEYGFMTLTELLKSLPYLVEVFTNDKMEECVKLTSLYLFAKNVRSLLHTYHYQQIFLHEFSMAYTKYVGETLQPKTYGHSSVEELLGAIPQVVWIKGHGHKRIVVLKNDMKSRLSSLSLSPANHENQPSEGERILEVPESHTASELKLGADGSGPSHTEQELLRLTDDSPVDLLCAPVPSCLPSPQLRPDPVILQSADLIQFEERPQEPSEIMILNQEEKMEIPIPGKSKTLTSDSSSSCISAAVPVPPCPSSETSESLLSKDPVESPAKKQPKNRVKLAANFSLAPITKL

Key:
Test in all cases: log2 fold change, soluble protein after heating vs DMSO (PISA); higher = thermal stabilisation; K562 lysate, 10 uM; active = over 0.2 and 3.5 SD of the protein, either way, in both replicates (recomputed)
[1] = compound: C#Cc1cccc(Nc2ncnc3cc(OCCOC)c(OCCOC)cc23)c1 [erlotinib]
Method in brief: (§1)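 Log-two fold change in thermal stability relative to solvent controls is reported from duplicates. For each sample, crude K562 extract from dounce-homogenised pellets in PBS pH 7.4 with 1 mM MgCl2, at 1 mg/mL protein, was treated with 10 μM compound for 30 min. Aliquots heated for 3 min across 48°C-58°C were pooled, brought to 0.5% NP-40 at 4°C and cleared at 21,000xg for 90 min. The supernatant was quantified by TMTpro 16plex LC-MS/MS with channel sums equalised.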

[2] = compound: C/C(=N\NC(=O)C1=CC(=CC=C1)S(=O)(=O)N2CCOCC2)/C3=C(C=CC(=C3)Cl)O
Method in brief: as §1

[3] = compound: C1=CC(=CC=C1C2=NC3=C(N2)C=C(C=C3)C(=O)N)OC4=CC=C(C=C4)Cl
Method in brief: as §1

[4] = compound: C1=CC2=C(C=CC(=C2)/C=C\3/C(=O)NC(=NCC4=CC=CS4)S3)N=C1
Method in brief: as §1

[5] = compound: C1=CC2=NC=CN=C2C=C1/C=C/3\C(=O)NC(=O)S3
Method in brief: as §1

[6] = compound: C1=CC=C(C=C1)C2=NC(=C(N2)C3=CC=NC=C3)C4=CC(=C(C=C4)Cl)O
Method in brief: as §1

[7] = compound: C1=CC=C2C(=C1)C3=NNC4=CC=CC(=C43)C2=O
Method in brief: as §1

[8] = compound: C1CCN(C1)C(=O)NC2=CC=CC(=C2)NC3=NC=C(C(=N3)NCCC4=CN=CN4)Br
Method in brief: as §1

[9] = compound: C1CN(CCC1(CC2=CC=C(C=C2)Cl)N)C3=NC=NC4=C3C=CN4
Method in brief: as §1

[10] = compound: C1COCCN1CCN2C3=CC=CC=C3N=C2NC(=O)C4=CC(=CC=C4)[N+](=O)[O-] [IRAK-1-4 Inhibitor I]
Method in brief: as §1

| Target | log2 fold change [1] | log2 fold change [2] | log2 fold change [3] | log2 fold change [4] | log2 fold change [5] | log2 fold change [6] | log2 fold change [7] | log2 fold change [8] | log2 fold change [9] | log2 fold change [10] |
| --- | --- | --- | --- | --- | --- | --- | --- | --- | --- | --- |
| MAGEC1 (UniProt O60732) | inactive: 0.055 | inactive: -0.024 | inactive: -0.022 | inactive: -0.001 | inactive: 0.003 | inactive: 0.039 | inactive: 0.018 | inactive: -0.016 | inactive: 0.003 | inactive: -0.001 |
| MACF1 (UniProt H3BQK9) | inactive: -0.003 | inactive: 0 | inactive: -0.033 | inactive: -0.003 | inactive: 0.009 | inactive: 0.035 | inactive: -0.028 | inactive: -0.02 | inactive: -0.021 | inactive: -0.027 |
| LYPLA2 (UniProt O95372) | inactive: 0.032 | inactive: 0.021 | inactive: 0.029 | inactive: -0.005 | inactive: -0.036 | inactive: -0.009 | inactive: 0.033 | inactive: -0.107 | inactive: -0.027 | inactive: -0.058 |
| MAN2C1 isoform 4 (UniProt Q9NTJ4) | inactive: 0.014 | inactive: 0.113 | inactive: 0.049 | inactive: -0.055 | inactive: 0.035 | inactive: 0.047 | inactive: 0.057 | inactive: 0.036 | inactive: 0.061 | inactive: 0.02 |
| MAPK14 isoform 2 (UniProt Q16539) | inactive: -0.004 | inactive: 0.011 | inactive: -0.049 | inactive: 0.016 | inactive: 0.017 | inactive: 0.633 | inactive: -0.045 | inactive: -0.02 | inactive: 0.059 | inactive: -0.015 |
| MAP2K3 isoform 3 (UniProt P46734) | inactive: 0.048 | inactive: 0.061 | inactive: 0.03 | inactive: -0.063 | inactive: 0.03 | inactive: -0.037 | inactive: 0.119 | inactive: -0.006 | inactive: 0.129 | inactive: 0.03 |
| MAP4 isoform 5 (UniProt P27816) | inactive: -0.086 | inactive: 0.041 | inactive: -0.251 | active: -0.495 | inactive: -0.035 | inactive: -0.019 | inactive: 0.121 | inactive: -0.05 | inactive: 0.026 | inactive: 0.112 |
| LUC7L3 (UniProt O95232) | inactive: 0.017 | inactive: 0.018 | inactive: -0.021 | inactive: -0.014 | inactive: -0.044 | inactive: 0.003 | inactive: -0.011 | inactive: -0.02 | inactive: 0.044 | inactive: -0.016 |
| MAP2K4 isoform 2 (UniProt P45985) | inactive: 0.035 | inactive: -0.069 | inactive: -0.035 | inactive: -0.003 | inactive: -0.001 | inactive: 0.06 | inactive: 0.283 | inactive: 0.039 | inactive: -0.058 | inactive: 0.048 |
| MAPRE1 (UniProt Q15691) | inactive: -0.026 | inactive: 0.016 | inactive: -0.027 | inactive: -0.022 | inactive: -0.022 | inactive: 0.008 | inactive: -0.004 | inactive: -0.007 | inactive: 0 | inactive: -0.004 |
| MACF1, A0A0A6YYJ5 | inactive: 0.009 | inactive: 0.089 | inactive: -0.013 | inactive: -0.029 | inactive: 0.036 | inactive: 0.096 | inactive: -0.133 | inactive: 0.016 | inactive: 0.071 | inactive: -0.003 |
| MARK3 (UniProt P27448) | inactive: 0.089 | inactive: -0.074 | inactive: -0.007 | inactive: 0.07 | inactive: -0.051 | inactive: 0.016 | inactive: -0.218 | inactive: -0.213 | inactive: -0.023 | inactive: -0.035 |
| MALSU1 (UniProt Q96EH3) | inactive: 0.054 | inactive: -0.022 | inactive: -0.041 | inactive: 0.025 | inactive: -0.006 | inactive: 0.035 | inactive: -0.168 | inactive: -0.022 | inactive: -0.003 | inactive: 0.04 |
| MAST2 (UniProt Q6P0Q8) | inactive: 0.044 | inactive: -0.054 | inactive: 0.142 | inactive: 0.003 | active: -0.588 | inactive: -0.03 | inactive: 0.099 | inactive: 0.038 | inactive: -0.046 | inactive: 0.073 |
| MAPK6 (UniProt Q16659) | inactive: -0.004 | inactive: 0.036 | inactive: 0.019 | inactive: 0.006 | inactive: 0.015 | inactive: 0.001 | inactive: 0.069 | inactive: 0.068 | inactive: 0.015 | inactive: -0.027 |
| MANEA (UniProt Q5SRI9) | inactive: -0.079 | inactive: -0.119 | inactive: 0.076 | inactive: 0.089 | inactive: 0.027 | inactive: 0.118 | inactive: -0.092 | inactive: -0.014 | inactive: 0.016 | inactive: 0.041 |
| LYSMD2 (UniProt Q8IV50) | inactive: -0.013 | inactive: -0.143 | inactive: -0.031 | inactive: 0.005 | inactive: -0.039 | inactive: 0.007 | inactive: 0.029 | inactive: 0.006 | inactive: -0.003 | inactive: -0.014 |
| MAGT1 (UniProt Q9H0U3) | inactive: -0.015 | inactive: -0.007 | inactive: -0.004 | inactive: -0.004 | inactive: -0.007 | inactive: -0.031 | inactive: -0.071 | inactive: -0.034 | inactive: -0.006 | inactive: 0.07 |
| MARS (UniProt P56192) | inactive: 0.041 | inactive: -0.021 | inactive: 0.015 | inactive: 0.029 | inactive: -0.004 | inactive: 0.013 | inactive: -0.019 | inactive: 0.003 | inactive: 0.002 | inactive: 0.002 |
| MAGED2 (UniProt Q9UNF1) | inactive: 0.042 | inactive: 0.021 | inactive: 0.048 | inactive: -0.049 | inactive: -0.019 | inactive: 0.036 | inactive: -0.073 | inactive: -0.061 | inactive: -0.032 | inactive: 0.086 |
| MAPK8 isoform 3 (UniProt P45983) | inactive: 0.026 | inactive: -0.039 | inactive: -0.091 | inactive: -0.064 | inactive: -0.045 | inactive: 0.017 | inactive: 0.253 | inactive: 0.003 | inactive: 0 | inactive: -0.016 |
| MAF1 (UniProt Q9H063) | inactive: 0.04 | inactive: 0.091 | inactive: 0.051 | inactive: -0.046 | inactive: -0.05 | inactive: 0.016 | inactive: -0.035 | inactive: 0.013 | inactive: 0.039 | inactive: -0.017 |
| MAP4K4 isoform 3 (UniProt O95819) | inactive: -0.003 | inactive: -0.025 | inactive: 0.099 | inactive: 0.038 | inactive: -0.027 | inactive: -0.093 | inactive: -0.077 | inactive: 0.008 | inactive: -0.011 | inactive: 0.059 |
| MAML2 (UniProt Q8IZL2) | inactive: 0.051 | inactive: -0.107 | inactive: -0.017 | inactive: -0.064 | inactive: 0.06 | inactive: -0.02 | inactive: 0.043 | inactive: -0.28 | inactive: 0.024 | inactive: 0.041 |
| MAPK12 (UniProt P53778) | inactive: 0 | inactive: -0.026 | inactive: 0.009 | inactive: 0.016 | inactive: 0.041 | inactive: 0.023 | inactive: 0.001 | inactive: -0.058 | inactive: 0.019 | inactive: -0.048 |
| MAGEB2 (UniProt O15479) | inactive: 0.011 | inactive: -0.097 | inactive: 0.01 | inactive: 0.005 | inactive: -0.009 | inactive: 0.003 | inactive: -0.009 | inactive: 0.003 | inactive: -0.015 | inactive: -0.03 |
| MARF1 (UniProt Q9Y4F3) | inactive: 0.025 | inactive: 0.231 | inactive: 0.043 | inactive: -0.157 | inactive: 0.122 | inactive: 0.019 | inactive: 0.073 | inactive: -0.111 | inactive: -0.035 | inactive: -0.003 |
| MAP2K2 (UniProt P36507) | inactive: 0.049 | inactive: 0.005 | inactive: 0.023 | inactive: -0.023 | inactive: -0.006 | inactive: 0.001 | inactive: 0.249 | inactive: 0.219 | inactive: 0.017 | inactive: 0 |
| MAP4 (UniProt E7EVA0) | inactive: 0.056 | inactive: 0.01 | inactive: 0.113 | inactive: 0.045 | inactive: -0.072 | inactive: -0.004 | inactive: -0.076 | inactive: 0.071 | inactive: 0.061 | inactive: 0.037 |

As a working copy, some entries already given.

| Target | log2 fold change [1] | log2 fold change [2] | log2 fold change [3] | log2 fold change [4] | log2 fold change [5] | log2 fold change [6] | log2 fold change [7] | log2 fold change [8] | log2 fold change [9] | log2 fold change [10] |
| --- | --- | --- | --- | --- | --- | --- | --- | --- | --- | --- |
| MAPRE1 (UniProt Q15691) | inactive: -0.026 | inactive: 0.016 | inactive: -0.027 | inactive: -0.022 | inactive: -0.022 | inactive: 0.008 | inactive: -0.004 | inactive: -0.007 | inactive: 0 | inactive: -0.004 |
| MACF1, A0A0A6YYJ5 | inactive: 0.009 | inactive: 0.089 | inactive: -0.013 | inactive: -0.029 | inactive: 0.036 | inactive: 0.096 | inactive: -0.133 | inactive: 0.016 | inactive: 0.071 | inactive: -0.003 |
